According to paper doi:10.1101/2022.12.26.521971:
These are yes or no findings as the source states them, for the method shown. In cells and extracts the contact can be indirect. Some entries that bind do so weakly or less than the wild type.

Chains of the proteins cited; added tags and fusions are not shown. Lines headed by an entry give the natural chain unless they say otherwise; changes in a name come on top.
UniProt P20789: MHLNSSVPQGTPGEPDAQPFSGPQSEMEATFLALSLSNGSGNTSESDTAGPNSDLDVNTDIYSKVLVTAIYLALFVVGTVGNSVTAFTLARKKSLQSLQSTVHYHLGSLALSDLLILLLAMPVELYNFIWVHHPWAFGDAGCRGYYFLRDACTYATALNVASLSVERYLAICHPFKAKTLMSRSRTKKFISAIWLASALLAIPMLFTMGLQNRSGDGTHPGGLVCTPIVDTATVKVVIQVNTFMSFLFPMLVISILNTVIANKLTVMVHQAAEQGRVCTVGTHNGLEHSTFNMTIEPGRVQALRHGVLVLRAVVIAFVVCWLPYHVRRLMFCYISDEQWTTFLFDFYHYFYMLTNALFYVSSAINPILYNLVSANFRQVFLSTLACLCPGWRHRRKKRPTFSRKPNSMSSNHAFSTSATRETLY

Assays:
Experiment in all cases: FRET or BRET
[1] = target: human NTSR1 containing C-terminal Renilla luciferase (RLuc) (human) (UniProt P30989)
[2] = target: constitutively active rat NTSR1 F358A with C-terminal Renilla luciferase (RLuc) (rat) (UniProt P20789)
[3] = target: rat NTSR1 containing C-terminal Renilla luciferase (RLuc) (rat) (UniProt P20789)

Measured: binding

Venus-tagged N-terminal β-Arrestin2 (from UniProt P32121 1-409)
binds: all assays above
